This passage reports binding results from publication doi:10.1101/2025.10.25.684511.

Sequences of proteins named here, by UniProt entry; tags and fusion partners are left off.
UniProt Q99LI8: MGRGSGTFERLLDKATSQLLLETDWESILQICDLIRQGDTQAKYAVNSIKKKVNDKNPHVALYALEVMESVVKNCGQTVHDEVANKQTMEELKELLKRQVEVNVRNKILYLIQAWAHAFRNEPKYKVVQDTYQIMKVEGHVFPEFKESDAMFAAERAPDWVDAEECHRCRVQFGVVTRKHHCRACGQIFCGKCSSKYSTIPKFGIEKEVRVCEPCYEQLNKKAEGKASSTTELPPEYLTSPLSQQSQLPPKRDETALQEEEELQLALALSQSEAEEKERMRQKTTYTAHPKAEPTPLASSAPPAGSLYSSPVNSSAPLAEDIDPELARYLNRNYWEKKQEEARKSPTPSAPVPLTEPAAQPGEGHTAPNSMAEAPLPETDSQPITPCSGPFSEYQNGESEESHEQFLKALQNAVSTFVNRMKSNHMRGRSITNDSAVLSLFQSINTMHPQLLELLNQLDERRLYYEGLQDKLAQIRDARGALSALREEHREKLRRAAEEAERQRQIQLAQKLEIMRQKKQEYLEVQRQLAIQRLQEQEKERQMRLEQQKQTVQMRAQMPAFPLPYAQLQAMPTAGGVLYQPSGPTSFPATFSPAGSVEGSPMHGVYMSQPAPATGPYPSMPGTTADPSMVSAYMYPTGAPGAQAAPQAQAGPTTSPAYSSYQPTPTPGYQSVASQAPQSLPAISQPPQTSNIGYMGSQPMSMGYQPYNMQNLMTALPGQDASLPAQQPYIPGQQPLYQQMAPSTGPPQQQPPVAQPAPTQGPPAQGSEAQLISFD
UniProt P70297: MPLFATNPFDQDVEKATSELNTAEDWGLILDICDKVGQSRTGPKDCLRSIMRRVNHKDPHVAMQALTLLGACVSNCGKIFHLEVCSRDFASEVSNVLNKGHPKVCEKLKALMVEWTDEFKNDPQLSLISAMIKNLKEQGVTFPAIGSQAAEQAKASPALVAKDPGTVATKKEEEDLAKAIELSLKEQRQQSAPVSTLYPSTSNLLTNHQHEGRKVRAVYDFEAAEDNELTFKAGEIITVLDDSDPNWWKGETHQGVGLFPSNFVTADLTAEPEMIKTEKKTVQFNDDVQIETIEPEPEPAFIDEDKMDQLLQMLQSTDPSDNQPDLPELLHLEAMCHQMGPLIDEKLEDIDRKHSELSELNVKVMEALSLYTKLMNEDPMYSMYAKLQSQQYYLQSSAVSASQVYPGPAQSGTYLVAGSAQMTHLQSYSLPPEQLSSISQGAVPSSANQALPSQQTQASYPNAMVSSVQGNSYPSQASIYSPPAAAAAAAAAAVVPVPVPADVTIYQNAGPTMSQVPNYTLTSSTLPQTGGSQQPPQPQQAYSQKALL

These are yes or no findings as the source states them, for the method shown. Binding seen in cells or lysates may run through a third protein. A yes stands for co-enrichment or nearness to the bait. Other partners may have been found.

The assay has as its target hepatocyte growth factor-regulated tyrosine kinase substrate (HGS) (mouse (endogenous in 17Cl-1)) (UniProt Q99LI8). Briefly: affinity purification with mass spectrometry.

STAM (from UniProt P70297 1-548): the binding entry is reported as “binds”.
